PubChem BioAssay AID602196, INSERM | 2012

Test: 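Knock-downs that protect lung cancer cells from cisplatin or sensitise them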
Cell system: human A549 lung cancer cells
Knock-down reagent: siRNA pair against human genes
Timing: 48 h transfection before cisplatin; time from cisplatin to read-out not stated
Challenge: cisplatin at a dose killing half of control-siRNA cells; exact dose and duration not given
Detection: 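Cisplatin cell death as a shift from the 50% death seen with control siRNA; siRNAs toxic or growth-blocking alone scored 0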
Scale: two-siRNA summed score (-2 to +2): higher = both siRNAs protect from cisplatin killing; -2 means both sensitise; mean protection from cisplatin (shift in death): higher = protection from cisplatin killing
Rule for the call: 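Each siRNA scores 0 if harmful alone by LDH or WST-1, otherwise +1 if it reduces and -1 if it increases cisplatin killing; a gene is active when both siRNAs agree (sum +2 or -2)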
Meaning of the calls: active = both siRNAs shift cisplatin killing the same way; inactive = no consistent shift, or siRNA harmful alone
The deposit covers about 23,000 reagents; shown is a part drawn at random. 455 of them (2%) were called active. 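Active includes both protection and sensitisation; some change values fall well beyond the stated -50 to +50 range.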 Unmarked entries are inactive. Further read-outs or replicates are left out here. Not given: the amount of reagent.

Silencing of ADORA1 gave: two-siRNA summed score (-2 to +2) = -1; mean protection from cisplatin (shift in death) (%) = -17.8.
CYLD gave two-siRNA summed score (-2 to +2) = -1; mean protection from cisplatin (shift in death) (%) = -13.
UNC13D gave two-siRNA summed score (-2 to +2) = 0; mean protection from cisplatin (shift in death) (%) = 28.2.
Against LOC440851 the deposit lists two-siRNA summed score (-2 to +2) = 0; mean protection from cisplatin (shift in death) (%) = 6.1.
With knock-down of CLCN2 the results were two-siRNA summed score (-2 to +2) = 0; mean protection from cisplatin (shift in death) (%) = 3.
Silencing of SLC49A4 gave: two-siRNA summed score (-2 to +2) = 0; mean protection from cisplatin (shift in death) (%) = 10.2.
With knock-down of CRYGC, the screen gave two-siRNA summed score (-2 to +2) = 0; mean protection from cisplatin (shift in death) (%) = 5.6.
Against GPAT3, the values are two-siRNA summed score (-2 to +2) = 0; mean protection from cisplatin (shift in death) (%) = -5.
ACAN gave two-siRNA summed score (-2 to +2) = 1; mean protection from cisplatin (shift in death) (%) = 19.5.
IRF2BPL gave two-siRNA summed score (-2 to +2) = 0; mean protection from cisplatin (shift in death) (%) = 1.3.
Against FAM225B the deposit lists two-siRNA summed score (-2 to +2) = 0; mean protection from cisplatin (shift in death) (%) = 12.3.
Knock-down of CLCNKA came out at: two-siRNA summed score (-2 to +2) = 1; mean protection from cisplatin (shift in death) (%) = 5.
For ZP3, the entry reads two-siRNA summed score (-2 to +2) = 0; mean protection from cisplatin (shift in death) (%) = 6.5.
Against DMD, the values are two-siRNA summed score (-2 to +2) = 1; mean protection from cisplatin (shift in death) (%) = 10.1.
HECTD4 gave two-siRNA summed score (-2 to +2) = 0; mean protection from cisplatin (shift in death) (%) = 1.9.

Sorted by “two-siRNA summed score (-2 to +2)” (ascending): some entries from above
CRYGC → two-siRNA summed score (-2 to +2): 0; mean protection from cisplatin (shift in death) (%): 5.6
GPAT3 → two-siRNA summed score (-2 to +2): 0; mean protection from cisplatin (shift in death) (%): -5
ACAN → two-siRNA summed score (-2 to +2): 1; mean protection from cisplatin (shift in death) (%): 19.5

Additional reagents follow.
For GCM1, the entry reads two-siRNA summed score (-2 to +2) = 1; mean protection from cisplatin (shift in death) (%) = 4.8.
ZNF713 scored two-siRNA summed score (-2 to +2) = 1; mean protection from cisplatin (shift in death) (%) = 5.4.
HHCM scored two-siRNA summed score (-2 to +2) = 1; mean protection from cisplatin (shift in death) (%) = 16.4.
Depletion of BMP4 resulted in: two-siRNA summed score (-2 to +2) = 0; mean protection from cisplatin (shift in death) (%) = 1.6.
Depletion of LDLRAD4 came out at: two-siRNA summed score (-2 to +2) = 0; mean protection from cisplatin (shift in death) (%) = 6.3.
With knock-down of ARHGAP17, the screen gave two-siRNA summed score (-2 to +2) = 0; mean protection from cisplatin (shift in death) (%) = 4.2.
INTS13 showed two-siRNA summed score (-2 to +2) = 0; mean protection from cisplatin (shift in death) (%) = 7.8.
Knock-down of COQ7 gave: two-siRNA summed score (-2 to +2) = 1; mean protection from cisplatin (shift in death) (%) = 15.6.
With knock-down of WDR25, the screen gave two-siRNA summed score (-2 to +2) = 0; mean protection from cisplatin (shift in death) (%) = 2.2.
APOL4 scored two-siRNA summed score (-2 to +2) = 0; mean protection from cisplatin (shift in death) (%) = 6.4.
Against LOC390511 the deposit lists two-siRNA summed score (-2 to +2) = 0; mean protection from cisplatin (shift in death) (%) = -2.1.
Knock-down of OGA resulted in: two-siRNA summed score (-2 to +2) = 0; mean protection from cisplatin (shift in death) (%) = 5.7.
Against ZNF546, the values are two-siRNA summed score (-2 to +2) = 0; mean protection from cisplatin (shift in death) (%) = 2.2.
ZNF683 gave two-siRNA summed score (-2 to +2) = 0; mean protection from cisplatin (shift in death) (%) = 6.4.
LOC401638 gave two-siRNA summed score (-2 to +2) = 0; mean protection from cisplatin (shift in death) (%) = -2.1.
For HMGN2P46, the values are two-siRNA summed score (-2 to +2) = 0; mean protection from cisplatin (shift in death) (%) = 7.3.
